Assay results from article PMC12227070.
Changes are numbered by the printed parent chain. These are yes or no findings as the source states them, for the method shown. Binding seen in cells or lysates may run through a third protein. Here binding means that the protein was enriched with, or labelled near, the bait; the list need not be complete. For part of these data: A no says only that the protein was not detected with the bait. Where a sequence is shown, tags or fusion partners need not be part of it.

The chains behind the UniProt entries cited, without tags or fusion partners. Where a name states a change or a piece, a line headed by the entry shows the natural chain unless it says otherwise.
UniProt P05556: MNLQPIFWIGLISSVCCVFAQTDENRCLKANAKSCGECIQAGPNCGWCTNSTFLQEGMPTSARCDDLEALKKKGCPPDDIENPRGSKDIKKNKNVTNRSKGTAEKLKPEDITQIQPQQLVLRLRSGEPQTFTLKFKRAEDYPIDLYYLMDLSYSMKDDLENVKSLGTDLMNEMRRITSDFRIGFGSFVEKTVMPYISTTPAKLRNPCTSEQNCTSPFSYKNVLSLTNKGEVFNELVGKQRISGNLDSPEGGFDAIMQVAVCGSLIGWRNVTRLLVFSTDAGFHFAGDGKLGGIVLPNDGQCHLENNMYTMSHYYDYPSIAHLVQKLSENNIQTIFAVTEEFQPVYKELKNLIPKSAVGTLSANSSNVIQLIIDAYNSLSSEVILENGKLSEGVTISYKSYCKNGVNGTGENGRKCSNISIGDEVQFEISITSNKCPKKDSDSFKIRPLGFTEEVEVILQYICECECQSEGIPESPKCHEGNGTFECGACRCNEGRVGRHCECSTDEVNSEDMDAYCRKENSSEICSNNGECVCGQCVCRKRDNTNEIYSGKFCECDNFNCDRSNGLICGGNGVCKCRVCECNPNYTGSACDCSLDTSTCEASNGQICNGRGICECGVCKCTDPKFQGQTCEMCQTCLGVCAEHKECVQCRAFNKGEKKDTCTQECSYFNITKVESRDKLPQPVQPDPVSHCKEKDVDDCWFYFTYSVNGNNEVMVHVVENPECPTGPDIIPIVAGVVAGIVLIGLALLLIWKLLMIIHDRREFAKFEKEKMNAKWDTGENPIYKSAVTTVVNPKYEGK
UniProt P33176: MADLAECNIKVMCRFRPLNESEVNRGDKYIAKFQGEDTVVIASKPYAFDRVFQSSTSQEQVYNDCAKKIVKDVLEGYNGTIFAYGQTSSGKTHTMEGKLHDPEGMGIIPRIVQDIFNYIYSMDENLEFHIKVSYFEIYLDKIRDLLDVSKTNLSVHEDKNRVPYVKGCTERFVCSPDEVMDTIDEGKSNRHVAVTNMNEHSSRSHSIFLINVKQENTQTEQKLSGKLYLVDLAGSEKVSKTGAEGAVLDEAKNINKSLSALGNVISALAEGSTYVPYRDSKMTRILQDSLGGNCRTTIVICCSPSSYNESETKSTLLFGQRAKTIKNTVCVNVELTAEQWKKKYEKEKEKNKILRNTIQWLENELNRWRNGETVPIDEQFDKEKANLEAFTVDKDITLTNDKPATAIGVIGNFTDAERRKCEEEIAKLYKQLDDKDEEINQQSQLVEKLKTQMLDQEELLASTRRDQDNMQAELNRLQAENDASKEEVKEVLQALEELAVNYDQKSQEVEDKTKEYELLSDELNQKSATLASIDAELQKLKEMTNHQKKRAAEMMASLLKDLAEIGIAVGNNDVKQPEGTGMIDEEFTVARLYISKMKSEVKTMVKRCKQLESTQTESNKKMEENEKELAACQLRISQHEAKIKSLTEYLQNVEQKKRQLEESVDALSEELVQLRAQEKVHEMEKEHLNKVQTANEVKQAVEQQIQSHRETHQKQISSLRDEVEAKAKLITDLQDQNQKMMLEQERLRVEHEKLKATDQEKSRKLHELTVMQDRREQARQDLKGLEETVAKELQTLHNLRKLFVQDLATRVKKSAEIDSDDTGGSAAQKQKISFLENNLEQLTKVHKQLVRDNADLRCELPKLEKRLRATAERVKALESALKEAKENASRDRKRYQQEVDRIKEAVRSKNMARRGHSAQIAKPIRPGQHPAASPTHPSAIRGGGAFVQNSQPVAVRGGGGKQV
UniProt Q7L804: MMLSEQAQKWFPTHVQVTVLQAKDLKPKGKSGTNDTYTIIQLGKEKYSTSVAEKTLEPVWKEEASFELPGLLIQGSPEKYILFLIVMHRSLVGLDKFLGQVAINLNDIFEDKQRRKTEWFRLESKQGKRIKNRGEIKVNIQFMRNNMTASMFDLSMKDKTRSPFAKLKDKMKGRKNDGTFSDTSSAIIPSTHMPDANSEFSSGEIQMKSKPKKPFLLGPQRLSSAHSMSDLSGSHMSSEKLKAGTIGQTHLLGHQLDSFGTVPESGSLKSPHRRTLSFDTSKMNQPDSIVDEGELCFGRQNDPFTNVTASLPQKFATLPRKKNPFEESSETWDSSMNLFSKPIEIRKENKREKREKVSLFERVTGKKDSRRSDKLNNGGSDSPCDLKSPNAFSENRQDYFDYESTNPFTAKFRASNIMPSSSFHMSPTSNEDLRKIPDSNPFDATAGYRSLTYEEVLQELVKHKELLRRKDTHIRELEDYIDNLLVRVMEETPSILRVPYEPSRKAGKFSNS

How the values were obtained:
mycBirA*-Rab25 wt [1] = molecular target: T1, mycBirA*-Rab25 wt (UniProt P57735); assay: proximity labelling; Rab25-BioID in living A2780 cells with mass spectrometry (label-free quantification); reanalysis of the previously published dataset PXD033693 (ref. 22); hits: at least 1.8-fold increase over BirA alone in at least three of four replicates
T1 sequence: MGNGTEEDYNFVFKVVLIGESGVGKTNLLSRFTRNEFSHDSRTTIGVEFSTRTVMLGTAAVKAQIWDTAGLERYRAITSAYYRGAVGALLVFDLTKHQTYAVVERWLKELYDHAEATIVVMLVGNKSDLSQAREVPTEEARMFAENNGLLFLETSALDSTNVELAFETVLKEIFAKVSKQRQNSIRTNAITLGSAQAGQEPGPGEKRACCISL

mycBirA*-Rab25 wt [2] = molecular target: T1, mycBirA*-Rab25 wt; assay: proximity labelling; BioID in A2780 stably expressing mycBirA* fused Rab25 wt or mutants; 1 μM biotin, 16 hours; lysates equalized to total protein, biotinylated proteins pulled down with streptavidin beads, immunoblot; Ctrl, no BirA
mycBirA*-Rab25 DN (T26N) = molecular target: T2, mycBirA*-Rab25 DN (T26N) (UniProt P57735); assay: as above
T2 sequence: T1 sequence with T26N

Substance | binding (mycBirA*-Rab25 wt [1]) | binding (mycBirA*-Rab25 wt [2]) | binding (mycBirA*-Rab25 DN (T26N))
integrin β1 (from UniProt P05556 21-798) (receptor) | binds | binds | no binding
Kif5b (from UniProt P33176 1-963) | binds | – | –
FMNL1 (formin-like protein 1) (from UniProt O95466-2) | binds | binds | no binding

The next lines start with the values.

binding (mycBirA*-Rab25 wt [1]) | binding (mycBirA*-Rab25 wt [2]) | binding (mycBirA*-Rab25 DN (T26N)) | Substance
binds | – | – | endothelial growth factor receptor (EGFR) (from UniProt P00533 25-1210)
binds | – | – | RAB11FIP2 (from UniProt Q7L804 1-512)
